Data source: PubChem BioAssay AID1259254 (NCATS, 2017)
Test: 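Genome-wide screen for genes that prevent DNA re-replication in cancer cells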 (primary screen). Cells: human HCT116 colorectal cancer cells. Reagents: single siRNA against human genes. Timing: 3 days. Measurement: 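Nuclei stained with Hoechst and imaged; cell-cycle phase assigned by DNA content; G2 share scaled per plate, non-targeting siRNA 0%, GMNN siRNA 100%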. Reading the numbers: G2 robust z-score and G2 cells, % of GMNN control: higher = more G2 cells, more excess DNA replication; raw share of cells in G2: higher = larger share of cells with G2 DNA content. Active means: 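Active siRNAs have a G2 robust z of 5 or more median absolute deviations over the median, which in these data means about 38% or higher of GMNN control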.
The deposit covers about 59,000 reagents; below is an unselected part. In the full data, about 1,550 (2.6%) were called active. 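G2 share is only a proxy for re-replication; each gene was hit by three separate siRNAs, and active genes were retested.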 Raw values are not corrected between plates. A number with no mark means an inactive call. Reagents against one gene are numbered here. Not stated in the record: the amount of reagent.

| target gene | siRNA no. | G2 robust z-score | G2 cells, % of GMNN control | raw share of cells in G2 (%) |
| --- | --- | --- | --- | --- |
| ZNF713 (zinc finger protein 713) | 1 | 0.711 | 7.97 | 5.83 |
| ZNF713 (zinc finger protein 713) | 2 | -0.829 | -2.86 | 2.17 |
| ZNF713 (zinc finger protein 713) | 3 | 0.734 | 8.13 | 6.38 |
| CCDC142 (coiled-coil domain containing 142) | 1 | -0.194 | 1.6 | 4.76 |
| CCDC142 (coiled-coil domain containing 142) | 2 | 1.81 | 15.7 | 7.92 |
| CCDC142 (coiled-coil domain containing 142) | 3 | -0.799 | -2.65 | 2.08 |
| GLOD4 (glyoxalase domain containing 4) | 1 | -0.0844 | 2.37 | 4.76 |
| GLOD4 (glyoxalase domain containing 4) | 2 | 0.52 | 6.62 | 7.05 |
| GLOD4 (glyoxalase domain containing 4) | 3 | 0.727 | 8.08 | 5.8 |
| DCTN5 (dynactin subunit 5) | 1 | 0.664 | 7.64 | 8.61 |
| DCTN5 (dynactin subunit 5) | 2 | 0.321 | 5.22 | 6.09 |
| DCTN5 (dynactin subunit 5) | 3 | -0.345 | 0.543 | 4.99 |
| RPAP3 (RNA polymerase II associated protein 3) | 1 | -0.175 | 1.74 | 5.17 |
| RPAP3 (RNA polymerase II associated protein 3) | 2 | -0.38 | 0.295 | 4.43 |
| RPAP3 (RNA polymerase II associated protein 3) | 3 | -0.327 | 0.664 | 2.56 |
| CSTB (cystatin B) | 1 | 0.597 | 7.17 | 7.61 |
| CSTB (cystatin B) | 2 | -0.804 | -2.69 | 4 |
| CSTB (cystatin B) | 3 | -0.384 | 0.267 | 4.19 |
| TGDS (TDP-glucose 4,6-dehydratase) | 1 | -0.934 | -3.6 | 2.95 |
| TGDS (TDP-glucose 4,6-dehydratase) | 2 | 0.616 | 7.3 | 6.37 |
| TGDS (TDP-glucose 4,6-dehydratase) | 3 | 3.33 | 26.4 | 17 |
| MTERF4 (mitochondrial transcription termination factor 4) | 1 | -0.302 | 0.84 | 4.49 |
| MTERF4 (mitochondrial transcription termination factor 4) | 2 | 0.0415 | 3.26 | 4.14 |
| MTERF4 (mitochondrial transcription termination factor 4) | 3 | -0.125 | 2.08 | 3.33 |
| KLF11 (KLF transcription factor 11) | 1 | -0.387 | 0.244 | 3.61 |
| KLF11 (KLF transcription factor 11) | 2 | 0.335 | 5.32 | 8.36 |
| KLF11 (KLF transcription factor 11) | 3 | 0.669 | 7.67 | 6.55 |
| KANK3 (KN motif and ankyrin repeat domains 3) | 1 | 1.83 | 15.9 | 9.32 |
| KANK3 (KN motif and ankyrin repeat domains 3) | 2 | -0.52 | -0.693 | 2.89 |
| KANK3 (KN motif and ankyrin repeat domains 3) | 3 | 0.0814 | 3.54 | 4.32 |
| NR3C2 (nuclear receptor subfamily 3 group C member 2) | 1 | -0.369 | 0.372 | 5.81 |
| NR3C2 (nuclear receptor subfamily 3 group C member 2) | 2 | -0.773 | -2.47 | 3.7 |
| NR3C2 (nuclear receptor subfamily 3 group C member 2) | 3 | -0.479 | -0.403 | 3.82 |
| CHCHD2 (coiled-coil-helix-coiled-coil-helix domain containing 2) | 1 | -0.0518 | 2.6 | 4.8 |
| CHCHD2 (coiled-coil-helix-coiled-coil-helix domain containing 2) | 2 | 0.476 | 6.32 | 6.58 |
| CHCHD2 (coiled-coil-helix-coiled-coil-helix domain containing 2) | 3 | -0.756 | -2.35 | 4.89 |
| ATP5F1D (ATP synthase F1 subunit delta) | 1 | 0.11 | 3.74 | 5.99 |
| ATP5F1D (ATP synthase F1 subunit delta) | 2 | -1.04 | -4.36 | 3.52 |
| ATP5F1D (ATP synthase F1 subunit delta) | 3 | -0.738 | -2.22 | 3.16 |
| IL18R1 (interleukin 18 receptor 1) | 1 | 0.639 | 7.46 | 7.38 |
| IL18R1 (interleukin 18 receptor 1) | 2 | 2.18 | 18.3 | 11.7 |
| IL18R1 (interleukin 18 receptor 1) | 3 | 0.823 | 8.76 | 8.52 |
| TINAGL1 (tubulointerstitial nephritis antigen like 1) | 1 | -0.173 | 1.75 | 6.37 |
| TINAGL1 (tubulointerstitial nephritis antigen like 1) | 2 | 1.16 | 11.1 | 8.28 |
| TINAGL1 (tubulointerstitial nephritis antigen like 1) | 3 | 0.876 | 9.13 | 7.54 |
| PTK6 (protein tyrosine kinase 6) | 1 | 5.49 (active) | 41.6 | 19.4 |
| PTK6 (protein tyrosine kinase 6) | 2 | 0.893 | 9.25 | 8.53 |
| PTK6 (protein tyrosine kinase 6) | 3 | -1.36 | -6.6 | 1.7 |
| RAPGEF6 (Rap guanine nucleotide exchange factor 6) | 1 | -1.45 | -7.22 | 2.68 |
| RAPGEF6 (Rap guanine nucleotide exchange factor 6) | 2 | -0.0885 | 2.34 | 5.11 |
| RAPGEF6 (Rap guanine nucleotide exchange factor 6) | 3 | -0.904 | -3.4 | 2.5 |

Quoted from above for reference:
| target gene | siRNA no. | G2 robust z-score | G2 cells, % of GMNN control | raw share of cells in G2 (%) |
| --- | --- | --- | --- | --- |
| CSTB (cystatin B) | 1 | 0.597 | 7.17 | 7.61 |
| CSTB (cystatin B) | 2 | -0.804 | -2.69 | 4 |
| CSTB (cystatin B) | 3 | -0.384 | 0.267 | 4.19 |
| TGDS (TDP-glucose 4,6-dehydratase) | 1 | -0.934 | -3.6 | 2.95 |
| TGDS (TDP-glucose 4,6-dehydratase) | 2 | 0.616 | 7.3 | 6.37 |
| TGDS (TDP-glucose 4,6-dehydratase) | 3 | 3.33 | 26.4 | 17 |
| MTERF4 (mitochondrial transcription termination factor 4) | 1 | -0.302 | 0.84 | 4.49 |
| MTERF4 (mitochondrial transcription termination factor 4) | 2 | 0.0415 | 3.26 | 4.14 |
| MTERF4 (mitochondrial transcription termination factor 4) | 3 | -0.125 | 2.08 | 3.33 |
| KLF11 (KLF transcription factor 11) | 1 | -0.387 | 0.244 | 3.61 |

Additional results:
| target gene | siRNA no. | G2 robust z-score | G2 cells, % of GMNN control | raw share of cells in G2 (%) |
| --- | --- | --- | --- | --- |
| NUTM2A-AS1 (NUTM2A antisense RNA 1) | 1 | -1.01 | -4.11 | 2.05 |
| NUTM2A-AS1 (NUTM2A antisense RNA 1) | 2 | 3.57 | 28.1 | 14.2 |
| NUTM2A-AS1 (NUTM2A antisense RNA 1) | 3 | -0.749 | -2.3 | 2.06 |
| C9orf43 (chromosome 9 open reading frame 43) | 1 | -0.106 | 2.22 | 4.45 |
| C9orf43 (chromosome 9 open reading frame 43) | 2 | 2.97 | 23.9 | 12.3 |
| C9orf43 (chromosome 9 open reading frame 43) | 3 | -0.222 | 1.41 | 3.7 |
| ETV3 (ETS variant transcription factor 3) | 1 | -0.528 | -0.75 | 4.96 |
| ETV3 (ETS variant transcription factor 3) | 2 | 0.729 | 8.1 | 8.34 |
| ETV3 (ETS variant transcription factor 3) | 3 | 4.07 | 31.6 | 14.9 |
| OXNAD1 (oxidoreductase NAD binding domain containing 1) | 1 | -0.0827 | 2.39 | 5.99 |
| OXNAD1 (oxidoreductase NAD binding domain containing 1) | 2 | 0.0306 | 3.18 | 5.68 |
| OXNAD1 (oxidoreductase NAD binding domain containing 1) | 3 | -0.00741 | 2.92 | 7.02 |
| IGF2BP2-AS1 (IGF2BP2 antisense RNA 1) | 1 | 4.68 | 35.9 | 17.3 |
| IGF2BP2-AS1 (IGF2BP2 antisense RNA 1) | 2 | -0.163 | 1.82 | 3.9 |
| IGF2BP2-AS1 (IGF2BP2 antisense RNA 1) | 3 | -0.644 | -1.56 | 2.55 |
| R3HCC1 (R3H domain and coiled-coil containing 1) | 1 | 1.37 | 12.6 | 8.14 |
| R3HCC1 (R3H domain and coiled-coil containing 1) | 2 | 1.27 | 11.9 | 7.2 |
| R3HCC1 (R3H domain and coiled-coil containing 1) | 3 | 0.0769 | 3.51 | 4.31 |
| DPP8 (dipeptidyl peptidase 8) | 1 | 0.492 | 6.43 | 7.8 |
| DPP8 (dipeptidyl peptidase 8) | 2 | -0.102 | 2.25 | 5.7 |
| DPP8 (dipeptidyl peptidase 8) | 3 | -1.07 | -4.57 | 2.2 |
| HMGB3P27 (high mobility group box 3 pseudogene 27) | 1 | 0.299 | 5.07 | 5.58 |
| HMGB3P27 (high mobility group box 3 pseudogene 27) | 2 | 0.609 | 7.25 | 6.17 |
| HMGB3P27 (high mobility group box 3 pseudogene 27) | 3 | 1.07 | 10.5 | 6.7 |
| KLHL2 (kelch like family member 2) | 1 | 0.724 | 8.06 | 9.6 |
| KLHL2 (kelch like family member 2) | 2 | 0.265 | 4.83 | 5.77 |
| KLHL2 (kelch like family member 2) | 3 | -0.0923 | 2.32 | 4.66 |
| GRAMD1C (GRAM domain containing 1C) | 1 | 0.318 | 5.2 | 5.47 |
| GRAMD1C (GRAM domain containing 1C) | 2 | 2.73 | 22.2 | 13.6 |
| GRAMD1C (GRAM domain containing 1C) | 3 | 0.17 | 4.16 | 4.57 |
| UQCC1 (ubiquinol-cytochrome c reductase complex assembly factor 1) | 1 | -0.912 | -3.45 | 3.2 |
| UQCC1 (ubiquinol-cytochrome c reductase complex assembly factor 1) | 2 | -1.02 | -4.22 | 2.39 |
| UQCC1 (ubiquinol-cytochrome c reductase complex assembly factor 1) | 3 | -0.775 | -2.48 | 2.34 |
| TERF2IP (TERF2 interacting protein) | 1 | -0.173 | 1.75 | 4.47 |
| TERF2IP (TERF2 interacting protein) | 2 | 0.218 | 4.5 | 8 |
| TERF2IP (TERF2 interacting protein) | 3 | -0.587 | -1.16 | 3.81 |
